Measurements taken from PubChem BioAssay AID194 (DTP/NCI, 2004).
Records with an inconclusive call do not appear. The calls were made as follows: active = survival T/C of 150% or more; inactive = T/C below 125% in these data.

Tested on: BDF1 mice, B16 melanoma s.c., survival/tumor T/C
Assay: NCI In Vivo Anticancer Drug Screen. Data for tumor model B16 Melanoma (subcutaneous) in B6D2F1 (BDF1) mice
Settings: endpoint: median survival time, schedule: Q01DX009 (ip), higher = longer survival
Description: The antitumor activity of compounds was measured in mice bearing transplantable tumors. Survival or tumor size were measured and the results are expressed as the measurement made in the treated group (T) divided by the measurement made in the vehicle treated control group (C). The tumor model used in this assay is B16 Melanoma (subcutaneous) in B6D2F1 (BDF1) mice

Measured: T/C

COc1cc2c(c(OC)c1OC)-c1ccc(OC)c(=O)cc1[C@@H](N)CC2
inactive: dose: 0.03 mg/kg/injection, vehicle: carboxymethylcellulose (CMC) 96 % of control | dose: 0.07 mg/kg/injection, vehicle: carboxymethylcellulose (CMC) 89 % of control | dose: 0.15 mg/kg/injection, vehicle: carboxymethylcellulose (CMC) 98 % of control | dose: 0.25 mg/kg/injection, vehicle: saline 113 % of control | dose: 0.3 mg/kg/injection, vehicle: carboxymethylcellulose (CMC) 105 % of control | dose: 0.6 mg/kg/injection, vehicle: carboxymethylcellulose (CMC) 86 % of control | dose: 0.63 mg/kg/injection, vehicle: Klucel (hydroxypropylcellulose) (HPC) 108 % of control | dose: 1.0 mg/kg/injection, vehicle: saline 104 % of control | dose: 1.25 mg/kg/injection, vehicle: Klucel (hydroxypropylcellulose) (HPC) 100 % of control | dose: 1.25 mg/kg/injection, vehicle: carboxymethylcellulose (CMC) 98 % of control | dose: 2.0 mg/kg/injection, vehicle: saline 100 % of control | dose: 2.5 mg/kg/injection, vehicle: Klucel (hydroxypropylcellulose) (HPC) 115 % of control | dose: 5.0 mg/kg/injection, vehicle: Klucel (hydroxypropylcellulose) (HPC) 108 % of control

COc1c(O)cc2c(c1OC)-c1ccc(OC)c(=O)cc1[C@@H](NC(C)=O)CC2
inactive: dose: 0.63 mg/kg/injection, vehicle: saline with Tween-80 = 103 % of control | dose: 1.25 mg/kg/injection, vehicle: saline with Tween-80 = 115 % of control | dose: 2.5 mg/kg/injection, vehicle: saline with Tween-80 = 124 % of control
